The source of these data is paper PMC5513536.

Protein sequences, listed by entry. Tags and fused reporters are not part of them.
UniProt F5HID2: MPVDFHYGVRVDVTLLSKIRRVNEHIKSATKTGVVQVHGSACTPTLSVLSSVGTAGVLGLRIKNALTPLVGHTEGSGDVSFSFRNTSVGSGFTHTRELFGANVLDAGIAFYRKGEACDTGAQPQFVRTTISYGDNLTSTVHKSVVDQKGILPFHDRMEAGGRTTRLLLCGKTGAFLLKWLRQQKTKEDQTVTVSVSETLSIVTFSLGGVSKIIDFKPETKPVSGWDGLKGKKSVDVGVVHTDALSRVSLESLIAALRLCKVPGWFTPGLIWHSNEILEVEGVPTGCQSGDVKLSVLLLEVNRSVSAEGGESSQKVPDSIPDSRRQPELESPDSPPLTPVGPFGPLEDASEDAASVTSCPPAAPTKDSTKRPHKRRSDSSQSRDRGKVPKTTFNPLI

The target in the assay is Flag-epitope tagged ORF59 (BAC16-ORF59Flag) (KSHV (human herpesvirus 8)) (UniProt F5HID2). The assay can be described thus: affinity purification with mass spectrometry.

Results are given in words; binding and its absence hold for the method and conditions named. Binding seen in cells or lysates may run through a third protein. Here binding means that the protein was enriched with, or labelled near, the bait; the list need not be complete.

B1: ORF9 (protein, UniProt Q2HRD0 1-1012)
chain: MDFFNPFIDPTRGGPRNTVRQPTPSQSPTVPSETRVCRLIPACFQTPGRPGVVAVDTTFPPTYFQGPKRGEVFAGETGSIWKTRRGQARNAPMSHLIFHVYDIVETTYTADRCEDVPFSFQTDIIPSGTVLKLLGRTLDGASVCVNVFRQRCYFYTLAPQGVNLTHVLQQALQAGFGRASCGFSTEPVRKKILRAYDTQQYAVQKITLSSSPMMRTLSDRLTTCGCEVFESNVDAIRRFVLDHGFSTFGWYECSNPAPRTQARDSWTELEFDCSWEDLKFIPERTEWPPYTILSFDIECMGEKGFPNATQDEDMIIQISCVLHTVGNDKPYTRMLLGLGTCDPLPGVEVFEFPSEYDMLAAFLSMLRDYNVEFITGYNIANFDLPYIIARATQVYDFKLQDFTKIKTGSVFEVHQPRGGSDGGNFMRSQSKVKISGIVPIDMYQVCREKLSLSDYKLDTVAKQCLGRQKDDISYKDIPPLFKSGPDGRAKVGNYCVIDSVLVMDLLLRFQTHVEISEIAKLAKIPTRRVLTDGQQIRVFSCLLEAAATEGYILPVPKGDAVSGYQGATVISPSPGFYDDPVLVVDFASLYPSIIQAHNLCYSTLIPGDSLHLHPHLSPDDYETFVLSGGPVHFVKKHKRESLLAKLLTVWLAKRKEIRKTLASCTDPALKTILDKQQLAIKVTCNAVYGFTGVASGILPCLNIAETVTLQGRKMLERSQAFVEAISPERLAGLLRRPVDVSPDARFKVIYGDTDSLFICCMGFNMDSVSDFAEELASITTNTLFRSPIKLEAEKIFKCLLLLTKKRYVGVLSDDKVLMKGVDLIRKTACRFVQEKSSQVLDLILREPSVKAAAKLISGQATDWVYREGLPEGFVKIIQVLNASHRELCERSVPVDKLTFTTELSRPLADYKTQNLPHLTVYQKLQARQEELPQIHDRIPYVFVDAPGSLRSELAEHPEYVKQHGLRVAVDLYFDKLVHAVANIIQCLFQNNTSATVAILYNFLDIPVTFPTP
For B1, the binding result is listed as “binds”.

B2: Leucine-rich flightless-interacting protein 2 (protein, UniProt Q9Y608 1-721)
chain: MGTPASGRKRTPVKDRFSAEDEALSNIAREAEARLAAKRAARAEARDIRMRELERQQKEYSLHSFDRKWGQIQKWLEDSERARYSHRSSHHRPYLGVEDALSIRSVGSHRYDMFKDRSSRLSSLNHSYSHSHGMKKRSSDSHKDLLSGLYFDQRNYSSLRHSKPTSAYYTRQSSSLYSDPLATYKSDRASPTANSGLLRSASLASLYNGGLYNPYGPRTPSECSYYSSRISSARSSPGFTNDDTASIVSSDRASRGRRESVVSAADYFSRSNRRGSVVSEVDDISIPDLSSLDEKSDKQYAENYTRPSSRNSASATTPLSGNSSRRGSGDTSSLIDPDTSLSELRDIYDLKDQIQDVEGRYMQGLKELKESLSEVEEKYKKAMVSNAQLDNEKNNLIYQVDTLKDVIEEQEEQMAEFYRENEEKSKELERQKHMCSVLQHKMEELKEGLRQRDELIEEKQRMQQKIDTMTKEVFDLQETLLWKDKKIGALEKQKEYIACLRNERDMLREELADLQETVKTGEKHGLVIIPDGTPNGDVSHEPVAGAITVVSQEAAQVLESAGEGPLDVRLRKLAGEKEELLSQIRKLKLQLEEERQKCSRNDGTVGDLAGLQNGSDLQFIEMQRDANRQISEYKFKLSKAEQDITTLEQSISRLEGQVLRYKTAAENAEKVEDELKAEKRKLQRELRTALDKIEEMEMTNSHLAKRLEKMKANRTALLAQQ
As for B2, the binding result was “binds”.

B3: Peroxiredoxin-1 (protein, UniProt Q06830 1-199)
chain: MSSGNAKIGHPAPNFKATAVMPDGQFKDISLSDYKGKYVVFFFYPLDFTFVCPTEIIAFSDRAEEFKKLNCQVIGASVDSHFCHLAWVNTPKKQGGLGPMNIPLVSDPKRTIAQDYGVLKADEGISFRGLFIIDDKGILRQITVNDLPVGRSVDETLRLVQAFQFTDKHGEVCPAGWKPGSDTIKPDVQKSKEYFSKQK
On to B3, for which the binding result was “binds”.

B4: Eukaryotic translation initiation factor 5B (protein, UniProt O60841 1-1220)
chain: MGKKQKNKSEDSTKDDIDLDALAAEIEGAGAAKEQEPQKSKGKKKKEKKKQDFDEDDILKELEELSLEAQGIKADRETVAVKPTENNEEEFTSKDKKKKGQKGKKQSFDDNDSEELEDKDSKSKKTAKPKVEMYSGSDDDDDFNKLPKKAKGKAQKSNKKWDGSEEDEDNSKKIKERSRINSSGESGDESDEFLQSRKGQKKNQKNKPGPNIESGNEDDDASFKIKTVAQKKAEKKERERKKRDEEKAKLRKLKEKEELETGKKDQSKQKESQRKFEEETVKSKVTVDTGVIPASEEKAETPTAAEDDNEGDKKKKDKKKKKGEKEEKEKEKKKGPSKATVKAMQEALAKLKEEEERQKREEEERIKRLEELEAKRKEEERLEQEKRERKKQKEKERKERLKKEGKLLTKSQREARARAEATLKLLQAQGVEVPSKDSLPKKRPIYEDKKRKKIPQQLESKEVSESMELCAAVEVMEQGVPEKEETPPPVEPEEEEDTEDAGLDDWEAMASDEETEKVEGNKVHIEVKENPEEEEEEEEEEEEDEESEEEEEEEGESEGSEGDEEDEKVSDEKDSGKTLDKKPSKEMSSDSEYDSDDDRTKEERAYDKAKRRIEKRRLEHSKNVNTEKLRAPIICVLGHVDTGKTKILDKLRHTHVQDGEAGGITQQIGATNVPLEAINEQTKMIKNFDRENVRIPGMLIIDTPGHESFSNLRNRGSSLCDIAILVVDIMHGLEPQTIESINLLKSKKCPFIVALNKIDRLYDWKKSPDSDVAATLKKQKKNTKDEFEERAKAIIVEFAQQGLNAALFYENKDPRTFVSLVPTSAHTGDGMGSLIYLLVELTQTMLSKRLAHCEELRAQVMEVKALPGMGTTIDVILINGRLKEGDTIIVPGVEGPIVTQIRGLLLPPPMKELRVKNQYEKHKEVEAAQGVKILGKDLEKTLAGLPLLVAYKEDEIPVLKDELIHELKQTLNAIKLEEKGVYVQASTLGSLEALLEFLKTSEVPYAGINIGPVHKKDVMKASVMLEHDPQYAVILAFDVRIERDAQEMADSLGVRIFSAEIIYHLFDAFTKYRQDYKKQKQEEFKHIAVFPCKIKILPQYIFNSRDPIVMGVTVEAGQVKQGTPMCVPSKNFVDIGIVTSIEINHKQVDVAKKGQEVCVKIEPIPGESPKMFGRHFEATDILVSKISRQSIDALKDWFRDEMQKSDWQLIVELKKVFEII
Turning to B4, the binding result is recorded as “binds”.

B5: Proliferation-associated 2G4, 38kDa, isoform CTA (protein, UniProt Q9UQ80 1-394)
chain: MSGEDEQQEQTIAEDLVVTKYKMGGDIANRVLRSLVEASSSGVSVLSLCEKGDAMIMEETGKIFKKEKEMKKGIAFPTSISVNNCVCHFSPLKSDQDYILKEGDLVKIDLGVHVDGFIANVAHTFVVDVAQGTQVTGRKADVIKAAHLCAEAALRLVKPGNQNTQVTEAWNKVAHSFNCTPIEGMLSHQLKQHVIDGEKTIIQNPTDQQKKDHEKAEFEVHEVYAVDVLVSSGEGKAKDAGQRTTIYKRDPSKQYGLKMKTSRAFFSEVERRFDAMPFTLRAFEDEKKARMGVVECAKHELLQPFNVLYEKEGEFVAQFKFTVLLMPNGPMRITSGPFEPDLYKSEMEVQDAELKALLQSSASRKTQKKKKKKASKTAENATSGETLEENEAGD
For the molecule B5, the binding result is given as “binds”.

B6: RNA-binding protein 14 (protein, UniProt Q96PK6 1-669)
chain: MKIFVGNVDGADTTPEELAALFAPYGTVMSCAVMKQFAFVHMRENAGALRAIEALHGHELRPGRALVVEMSRPRPLNTWKIFVGNVSAACTSQELRSLFERRGRVIECDVVKDYAFVHMEKEADAKAAIAQLNGKEVKGKRINVELSTKGQKKGPGLAVQSGDKTKKPGAGDTAFPGTGGFSATFDYQQAFGNSTGGFDGQARQPTPPFFGRDRSPLRRSPPRASYVAPLTAQPATYRAQPSVSLGAAYRAQPSASLGVGYRTQPMTAQAASYRAQPSVSLGAPYRGQLASPSSQSAAASSLGPYGGAQPSASALSSYGGQAAAASSLNSYGAQGSSLASYGNQPSSYGAQAASSYGVRAAASSYNTQGAASSLGSYGAQAASYGAQSAASSLAYGAQAASYNAQPSASYNAQSAPYAAQQAASYSSQPAAYVAQPATAAAYASQPAAYAAQATTPMAGSYGAQPVVQTQLNSYGAQASMGLSGSYGAQSAAAATGSYGAAAAYGAQPSATLAAPYRTQSSASLAASYAAQQHPQAAASYRGQPGNAYDGAGQPSAAYLSMSQGAVANANSTPPPYERTRLSPPRASYDDPYKKAVAMSKRYGSDRRLAELSDYRRLSESQLSFRRSPTKSSLDYRRLPDAHSDYARYSGSYNDYLRAAQMHSGYQRRM
B6: the binding result is listed as “binds”.

B7: ATP-binding cassette sub-family F member 2 (protein, UniProt Q9UG63 1-623)
chain: MPSDLAKKKAAKKKEAAKARQRPRKGHEENGDVVTEPQVAEKNEANGRETTEVDLLTKELEDFEMKKAAARAVTGVLASHPNSTDVHIINLSLTFHGQELLSDTKLELNSGRRYGLIGLNGIGKSMLLSAIGKREVPIPEHIDIYHLTREMPPSDKTPLHCVMEVDTERAMLEKEAERLAHEDAECEKLMELYERLEELDADKAEMRASRILHGLGFTPAMQRKKLKDFSGGWRMRVALARALFIRPFMLLLDEPTNHLDLDACVWLEEELKTFKRILVLVSHSQDFLNGVCTNIIHMHNKKLKYYTGNYDQYVKTRLELEENQMKRFHWEQDQIAHMKNYIARFGHGSAKLARQAQSKEKTLQKMMASGLTERVVSDKTLSFYFPPCGKIPPPVIMVQNVSFKYTKDGPCIYNNLEFGIDLDTRVALVGPNGAGKSTLLKLLTGELLPTDGMIRKHSHVKIGRYHQHLQEQLDLDLSPLEYMMKCYPEIKEKEEMRKIIGRYGLTGKQQVSPIRNLSDGQKCRVCLAWLAWQNPHMLFLDEPTNHLDIETIDALADAINEFEGGMMLVSHDFRLIQQVAQEIWVCEKQTITKWPGDILAYKEHLKSKLVDEEPQLTKRTHNV
Regarding B7, the binding result was “binds”.

B8: Non-POU domain-containing octamer-binding protein (protein, UniProt Q15233 1-471)
chain: MQSNKTFNLEKQNHTPRKHHQHHHQQQHHQQQQQQPPPPPIPANGQQASSQNEGLTIDLKNFRKPGEKTFTQRSRLFVGNLPPDITEEEMRKLFEKYGKAGEVFIHKDKGFGFIRLETRTLAEIAKVELDNMPLRGKQLRVRFACHSASLTVRNLPQYVSNELLEEAFSVFGQVERAVVIVDDRGRPSGKGIVEFSGKPAARKALDRCSEGSFLLTTFPRPVTVEPMDQLDDEEGLPEKLVIKNQQFHKEREQPPRFAQPGSFEYEYAMRWKALIEMEKQQQDQVDRNIKEAREKLEMEMEAARHEHQVMLMRQDLMRRQEELRRMEELHNQEVQKRKQLELRQEEERRRREEEMRRQQEEMMRRQQEGFKGTFPDAREQEIRMGQMAMGGAMGINNRGAMPPAPVPAGTPAPPGPATMMPDGTLGLTPPTTERFGQAATMEGIGAIGGTPPAFNRAAPGAEFAPNKRRRY
For the molecule B8, the binding entry is reported as “binds”.
